Laboratory results: the supplement of paper PMC10849652
The other results are listed elsewhere or left out.

Amino acid sequences for entries named in this document (tags omitted). A change or cut given only in a name is not applied to a line headed by its entry.
UniProt Q04726: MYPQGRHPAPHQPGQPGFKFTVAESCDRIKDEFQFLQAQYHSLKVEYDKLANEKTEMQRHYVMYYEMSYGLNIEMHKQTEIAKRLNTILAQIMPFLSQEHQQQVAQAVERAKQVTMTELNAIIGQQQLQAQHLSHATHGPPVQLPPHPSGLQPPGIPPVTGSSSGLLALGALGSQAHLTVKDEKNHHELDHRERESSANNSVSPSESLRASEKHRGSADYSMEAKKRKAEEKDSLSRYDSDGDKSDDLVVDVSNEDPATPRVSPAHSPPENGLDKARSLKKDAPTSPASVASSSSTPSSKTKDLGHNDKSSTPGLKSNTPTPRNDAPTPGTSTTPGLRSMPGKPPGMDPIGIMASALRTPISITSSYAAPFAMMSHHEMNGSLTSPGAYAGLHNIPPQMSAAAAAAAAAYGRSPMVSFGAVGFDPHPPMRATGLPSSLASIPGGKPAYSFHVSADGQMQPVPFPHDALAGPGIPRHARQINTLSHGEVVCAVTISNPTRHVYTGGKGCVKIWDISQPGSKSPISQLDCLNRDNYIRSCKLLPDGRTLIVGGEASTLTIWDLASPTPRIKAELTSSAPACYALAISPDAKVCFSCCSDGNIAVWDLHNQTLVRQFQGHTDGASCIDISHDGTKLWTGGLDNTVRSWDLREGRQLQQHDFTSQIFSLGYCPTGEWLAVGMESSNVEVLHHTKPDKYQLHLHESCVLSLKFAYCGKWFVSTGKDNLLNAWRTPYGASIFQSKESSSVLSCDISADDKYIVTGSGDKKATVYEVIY
UniProt Q9BRN9: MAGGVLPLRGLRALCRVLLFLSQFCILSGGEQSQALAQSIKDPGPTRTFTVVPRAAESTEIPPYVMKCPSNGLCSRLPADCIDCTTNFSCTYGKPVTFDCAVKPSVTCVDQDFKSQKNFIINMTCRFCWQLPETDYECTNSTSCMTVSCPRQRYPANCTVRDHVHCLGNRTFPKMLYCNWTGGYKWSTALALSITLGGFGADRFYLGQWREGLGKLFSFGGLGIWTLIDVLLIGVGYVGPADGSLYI
UniProt Q9Y3Q3: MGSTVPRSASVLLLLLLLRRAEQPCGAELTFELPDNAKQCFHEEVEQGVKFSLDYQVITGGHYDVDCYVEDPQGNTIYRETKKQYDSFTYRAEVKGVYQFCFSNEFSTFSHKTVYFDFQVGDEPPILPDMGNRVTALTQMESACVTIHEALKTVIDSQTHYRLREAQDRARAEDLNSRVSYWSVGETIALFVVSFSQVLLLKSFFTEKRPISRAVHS
UniProt Q9BSA9: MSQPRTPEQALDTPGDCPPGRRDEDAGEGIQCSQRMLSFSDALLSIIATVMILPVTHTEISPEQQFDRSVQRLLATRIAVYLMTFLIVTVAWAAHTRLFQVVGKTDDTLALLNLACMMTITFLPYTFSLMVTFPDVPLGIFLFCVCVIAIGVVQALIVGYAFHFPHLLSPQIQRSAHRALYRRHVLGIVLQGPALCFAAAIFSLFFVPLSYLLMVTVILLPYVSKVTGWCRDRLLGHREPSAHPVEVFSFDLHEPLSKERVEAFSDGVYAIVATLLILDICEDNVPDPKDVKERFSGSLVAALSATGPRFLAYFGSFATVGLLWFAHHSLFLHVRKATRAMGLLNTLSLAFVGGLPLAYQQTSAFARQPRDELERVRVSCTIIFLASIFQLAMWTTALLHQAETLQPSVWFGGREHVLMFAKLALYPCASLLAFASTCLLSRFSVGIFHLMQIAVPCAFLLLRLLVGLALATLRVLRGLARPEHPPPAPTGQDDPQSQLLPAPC
UniProt Q9BVK8: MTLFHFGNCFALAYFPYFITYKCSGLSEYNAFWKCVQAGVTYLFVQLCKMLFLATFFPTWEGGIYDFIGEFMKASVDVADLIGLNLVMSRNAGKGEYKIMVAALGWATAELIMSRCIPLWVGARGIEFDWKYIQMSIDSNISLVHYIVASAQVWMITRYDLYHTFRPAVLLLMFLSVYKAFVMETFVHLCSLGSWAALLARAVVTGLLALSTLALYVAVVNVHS
UniProt Q96B96: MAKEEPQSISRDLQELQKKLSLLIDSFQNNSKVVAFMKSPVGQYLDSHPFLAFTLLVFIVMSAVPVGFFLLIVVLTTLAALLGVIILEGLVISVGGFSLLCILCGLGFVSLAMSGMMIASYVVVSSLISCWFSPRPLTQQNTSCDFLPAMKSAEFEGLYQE
UniProt Q9NVA4: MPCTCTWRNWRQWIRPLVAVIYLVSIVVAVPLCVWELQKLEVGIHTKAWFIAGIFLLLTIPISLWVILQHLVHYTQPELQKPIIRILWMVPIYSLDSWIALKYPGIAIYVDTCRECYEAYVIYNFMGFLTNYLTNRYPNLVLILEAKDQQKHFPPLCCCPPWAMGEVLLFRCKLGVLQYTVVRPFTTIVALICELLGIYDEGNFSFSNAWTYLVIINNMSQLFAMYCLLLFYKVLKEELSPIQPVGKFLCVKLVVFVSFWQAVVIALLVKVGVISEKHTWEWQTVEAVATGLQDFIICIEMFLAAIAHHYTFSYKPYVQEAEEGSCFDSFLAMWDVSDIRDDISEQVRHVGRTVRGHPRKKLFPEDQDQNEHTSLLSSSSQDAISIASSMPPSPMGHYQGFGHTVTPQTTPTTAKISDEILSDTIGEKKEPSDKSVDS
UniProt Q96IK0: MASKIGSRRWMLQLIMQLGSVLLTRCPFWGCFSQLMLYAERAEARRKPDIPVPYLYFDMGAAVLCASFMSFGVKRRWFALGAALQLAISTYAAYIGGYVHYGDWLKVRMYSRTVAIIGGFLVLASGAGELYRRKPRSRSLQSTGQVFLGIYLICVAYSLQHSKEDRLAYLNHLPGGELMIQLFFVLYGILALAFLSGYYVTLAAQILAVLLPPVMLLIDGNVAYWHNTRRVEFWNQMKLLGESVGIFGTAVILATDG
UniProt Q8IUC6, whole entry, looked up: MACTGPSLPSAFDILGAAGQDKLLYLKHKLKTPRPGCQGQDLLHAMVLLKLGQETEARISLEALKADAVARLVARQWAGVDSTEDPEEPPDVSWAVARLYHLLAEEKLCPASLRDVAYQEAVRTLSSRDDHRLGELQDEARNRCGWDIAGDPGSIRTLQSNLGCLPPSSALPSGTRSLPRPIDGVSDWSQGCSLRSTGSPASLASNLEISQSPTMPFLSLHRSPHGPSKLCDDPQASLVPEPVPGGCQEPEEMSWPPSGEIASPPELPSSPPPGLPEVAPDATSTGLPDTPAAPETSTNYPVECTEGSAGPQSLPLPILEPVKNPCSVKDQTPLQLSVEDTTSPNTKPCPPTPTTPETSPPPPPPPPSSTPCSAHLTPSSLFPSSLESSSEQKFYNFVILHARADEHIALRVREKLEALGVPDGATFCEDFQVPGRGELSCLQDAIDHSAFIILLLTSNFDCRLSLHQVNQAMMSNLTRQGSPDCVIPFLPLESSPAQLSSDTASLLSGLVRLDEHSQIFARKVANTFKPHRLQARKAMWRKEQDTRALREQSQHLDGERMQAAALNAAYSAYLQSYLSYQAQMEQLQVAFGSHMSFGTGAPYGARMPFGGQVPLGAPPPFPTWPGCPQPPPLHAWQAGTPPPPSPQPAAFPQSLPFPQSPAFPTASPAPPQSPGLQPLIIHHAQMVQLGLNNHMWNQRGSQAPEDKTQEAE
UniProt Q9H1K6: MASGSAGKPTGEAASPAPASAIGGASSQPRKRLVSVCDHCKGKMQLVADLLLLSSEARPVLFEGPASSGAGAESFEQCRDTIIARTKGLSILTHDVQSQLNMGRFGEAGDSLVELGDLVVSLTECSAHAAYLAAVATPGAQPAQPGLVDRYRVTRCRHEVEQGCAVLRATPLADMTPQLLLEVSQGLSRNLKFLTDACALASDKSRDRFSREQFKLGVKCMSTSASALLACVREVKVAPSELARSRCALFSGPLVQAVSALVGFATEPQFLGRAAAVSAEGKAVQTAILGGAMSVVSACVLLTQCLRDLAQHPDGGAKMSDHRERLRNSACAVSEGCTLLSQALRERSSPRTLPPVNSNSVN
UniProt Q1AE95: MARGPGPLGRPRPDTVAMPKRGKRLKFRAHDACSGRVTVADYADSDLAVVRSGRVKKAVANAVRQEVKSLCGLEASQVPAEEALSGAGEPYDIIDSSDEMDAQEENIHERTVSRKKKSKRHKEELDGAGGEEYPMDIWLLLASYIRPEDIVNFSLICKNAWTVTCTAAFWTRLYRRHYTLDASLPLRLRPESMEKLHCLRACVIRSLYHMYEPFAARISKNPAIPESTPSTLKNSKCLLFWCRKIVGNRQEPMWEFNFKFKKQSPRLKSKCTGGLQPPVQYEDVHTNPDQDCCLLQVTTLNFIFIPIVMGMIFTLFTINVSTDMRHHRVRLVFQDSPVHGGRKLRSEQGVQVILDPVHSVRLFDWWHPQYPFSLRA
UniProt Q96AN5: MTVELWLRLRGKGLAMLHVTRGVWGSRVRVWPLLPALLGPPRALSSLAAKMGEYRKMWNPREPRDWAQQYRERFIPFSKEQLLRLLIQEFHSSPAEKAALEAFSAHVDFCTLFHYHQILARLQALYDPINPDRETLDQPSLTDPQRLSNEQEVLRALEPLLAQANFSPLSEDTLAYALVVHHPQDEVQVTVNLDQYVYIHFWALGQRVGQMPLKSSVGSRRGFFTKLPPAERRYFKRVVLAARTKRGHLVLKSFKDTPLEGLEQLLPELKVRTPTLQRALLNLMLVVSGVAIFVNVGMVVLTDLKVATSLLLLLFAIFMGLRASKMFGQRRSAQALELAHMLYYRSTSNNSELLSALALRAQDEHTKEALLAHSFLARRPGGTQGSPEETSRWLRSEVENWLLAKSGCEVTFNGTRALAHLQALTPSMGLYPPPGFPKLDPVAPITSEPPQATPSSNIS
UniProt P07996: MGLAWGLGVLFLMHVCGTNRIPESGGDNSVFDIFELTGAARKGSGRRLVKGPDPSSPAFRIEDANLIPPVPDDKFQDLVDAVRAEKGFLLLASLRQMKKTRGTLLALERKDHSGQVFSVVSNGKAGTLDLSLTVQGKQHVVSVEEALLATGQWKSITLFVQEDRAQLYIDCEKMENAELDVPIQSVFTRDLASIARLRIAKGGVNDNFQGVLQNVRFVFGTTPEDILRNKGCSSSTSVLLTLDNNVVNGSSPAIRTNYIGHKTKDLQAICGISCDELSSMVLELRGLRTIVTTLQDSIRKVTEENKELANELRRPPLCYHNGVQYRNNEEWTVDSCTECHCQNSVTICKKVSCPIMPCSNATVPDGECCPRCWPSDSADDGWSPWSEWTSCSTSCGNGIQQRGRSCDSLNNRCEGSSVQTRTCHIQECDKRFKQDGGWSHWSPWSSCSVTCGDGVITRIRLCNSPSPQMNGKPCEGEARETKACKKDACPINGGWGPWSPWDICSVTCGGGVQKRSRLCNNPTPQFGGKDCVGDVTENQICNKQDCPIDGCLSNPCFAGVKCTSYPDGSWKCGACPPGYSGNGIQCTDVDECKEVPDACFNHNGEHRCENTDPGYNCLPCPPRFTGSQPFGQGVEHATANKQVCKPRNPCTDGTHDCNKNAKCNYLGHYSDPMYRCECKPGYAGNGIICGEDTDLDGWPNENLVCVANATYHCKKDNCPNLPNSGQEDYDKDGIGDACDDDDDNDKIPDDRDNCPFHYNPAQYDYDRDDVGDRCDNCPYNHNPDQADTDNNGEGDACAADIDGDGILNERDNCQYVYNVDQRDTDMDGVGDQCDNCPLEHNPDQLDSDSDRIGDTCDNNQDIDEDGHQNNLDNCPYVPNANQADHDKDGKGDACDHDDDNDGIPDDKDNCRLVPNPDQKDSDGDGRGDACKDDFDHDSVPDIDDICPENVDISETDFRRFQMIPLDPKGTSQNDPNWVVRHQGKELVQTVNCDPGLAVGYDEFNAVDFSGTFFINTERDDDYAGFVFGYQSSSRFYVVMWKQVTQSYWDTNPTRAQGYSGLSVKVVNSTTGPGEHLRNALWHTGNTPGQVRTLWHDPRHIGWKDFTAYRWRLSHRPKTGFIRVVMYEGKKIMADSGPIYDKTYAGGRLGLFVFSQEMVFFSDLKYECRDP
UniProt O94876, whole entry, looked up: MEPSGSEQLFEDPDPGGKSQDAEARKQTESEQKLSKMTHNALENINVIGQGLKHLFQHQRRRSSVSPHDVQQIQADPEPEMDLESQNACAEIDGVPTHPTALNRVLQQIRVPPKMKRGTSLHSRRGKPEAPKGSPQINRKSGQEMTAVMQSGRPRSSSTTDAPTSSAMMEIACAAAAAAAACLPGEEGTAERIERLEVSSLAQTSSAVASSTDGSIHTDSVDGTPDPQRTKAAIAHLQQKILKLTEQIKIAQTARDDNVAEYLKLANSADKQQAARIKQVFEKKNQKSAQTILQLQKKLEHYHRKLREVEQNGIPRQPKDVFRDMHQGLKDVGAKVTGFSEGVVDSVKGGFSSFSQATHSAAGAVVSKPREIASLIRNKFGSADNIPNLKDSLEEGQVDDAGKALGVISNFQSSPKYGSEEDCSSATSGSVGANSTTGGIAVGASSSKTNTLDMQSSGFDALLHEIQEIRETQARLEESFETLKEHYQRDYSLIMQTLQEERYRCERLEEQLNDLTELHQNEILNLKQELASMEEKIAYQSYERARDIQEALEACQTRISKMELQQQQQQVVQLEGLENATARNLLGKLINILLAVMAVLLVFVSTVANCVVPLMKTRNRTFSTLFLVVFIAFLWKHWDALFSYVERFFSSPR

Compound: C1=CC=C(C=C1)[C@H](COC2=CC3=C(C=C2)NC(=O)N3)NC(=O)C4=CC=CN(C4=O)CC5=CC(=C(C=C5)F)F
Assay: log2 fold change, soluble protein after heating vs DMSO (PISA); higher = thermal stabilisation; K562 lysate, 10 uM; active = over 0.2 and 3.5 SD of the protein, either way, in both replicates (recomputed)
Method in brief: (§1)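 To prepare the extract, K562 pellets were dounce-homogenised in PBS pH 7.4 with 1 mM MgCl2, giving crude material at 1 mg/mL protein. This was treated with 10 μM compound for 30 min, then heated in aliquots for 3 min over 48°C-58°C before pooling and addition of NP-40 to 0.5% at 4°C. Centrifugation at 21,000xg for 90 min left soluble protein in the supernatant, which TMTpro 16plex LC-MS/MS quantified with equalised channel sums. Results are log-two fold changes in thermal stability compared with solvent controls, from duplicates.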

Target | log2 fold change
TLE3 isoform 5 (UniProt Q04726) | inactive: -0.061
TM2D3 (UniProt Q9BRN9) | inactive: 0.023
TMED3 (UniProt Q9Y3Q3) | inactive: 0.187
TMEM175 (UniProt Q9BSA9) | inactive: -0.034
TMEM147 (UniProt Q9BVK8) | inactive: -0.097
THOC2 (UniProt H0Y7U4) | inactive: 0.009
TMEM159 isoform 2 (UniProt Q96B96) | inactive: 0.008
TMEM184C (UniProt Q9NVA4) | inactive: 0.002
TMEM101 (UniProt Q96IK0) | inactive: -0.122
TICAM1 (UniProt Q8IUC6) | inactive: -0.204
TLNRD1 (UniProt Q9H1K6) | inactive: -0.183

Compound: CC1=C(SC2=C1C(=N[C@H](C3=NN=C(N32)C)CC(=O)N)C4=CC=C(C=C4)Cl)C
Assay: as above
Method in brief: as §1

Target | log2 fold change
TLE3 isoform 5 (UniProt Q04726) | active: -0.454
TM2D3 (UniProt Q9BRN9) | inactive: -0.003
TMED3 (UniProt Q9Y3Q3) | inactive: 0.252
TMEM175 (UniProt Q9BSA9) | inactive: -0.033
TMEM147 (UniProt Q9BVK8) | inactive: -0.008
THOC2 (UniProt H0Y7U4) | inactive: -0.143
TMEM159 isoform 2 (UniProt Q96B96) | inactive: -0.042
TMEM184C (UniProt Q9NVA4) | inactive: 0.038
TMEM101 (UniProt Q96IK0) | inactive: 0.054
TICAM1 (UniProt Q8IUC6) | inactive: -0.036
TLNRD1 (UniProt Q9H1K6) | inactive: 0.03

Compound: CC1=C2C(=CC=C1)N=C(N(C2=O)C3=CC=CC=C3C)CN4C=NC5=C(N=CN=C54)N
Assay: as above
Method in brief: as §1

Target | log2 fold change
TMEM102 (UniProt Q8N9M5) | inactive: -0.002
TIGAR (UniProt Q9NQ88) | inactive: -0.247
TMC1 (UniProt Q8TDI8) | inactive: 0.038
TMEM120B (UniProt A0PK00) | inactive: 0.112
TMC6 (UniProt Q7Z403) | inactive: 0
TMEM183B (UniProt Q1AE95) | inactive: -0.271
TMEM143 (UniProt Q96AN5) | inactive: 0.219
THBS1 (UniProt P07996) | inactive: -0.083
TMEM138 (UniProt Q9NPI0) | inactive: 0.081
TMCC1 (UniProt O94876) | inactive: -0.107

Compound: Cc1sc2c(c1C)C(c1ccc(Cl)cc1)=N[C@@H](CC(=O)OC(C)(C)C)c1nnc(C)n1-2
Assay: as above
Method in brief: as §1

Target | log2 fold change
TLE3 (UniProt H0YL70) | inactive: -0.343
TLE3 isoform 5 (UniProt Q04726) | inactive: -0.069
THAP5 (UniProt Q7Z6K1) | inactive: -0.043
TGFBR2 isoform 2 (UniProt P37173) | inactive: 0.227
TKTL1 (UniProt P51854) | inactive: -0.008
TIGAR (UniProt Q9NQ88) | inactive: 0.005
TGFBR1 isoform 2 (UniProt P36897) | inactive: -0.004
TICRR (UniProt Q7Z2Z1) | inactive: 0.217
TMEM154 (UniProt Q6P9G4) | inactive: -0.073
TMEM184B (UniProt Q9Y519) | inactive: -0.037
TMEM120B (UniProt A0PK00) | inactive: -0.123
TKT, A0A0B4J1R6 | inactive: -0.222
THOC2 (UniProt H0Y7U4) | inactive: 0.043
TMEM143 (UniProt Q96AN5) | inactive: -0.02
TMEM134 (UniProt Q9H6X4) | inactive: -0.038
TMEM159 isoform 2 (UniProt Q96B96) | inactive: -0.139
TMEM184C (UniProt Q9NVA4) | inactive: -0.022
TMEM101 (UniProt Q96IK0) | inactive: -0.125
THBS1 (UniProt P07996) | inactive: 0.095
TICAM1 (UniProt Q8IUC6) | inactive: -0.076
TMEM138 (UniProt Q9NPI0) | inactive: -0.094
TMCC1 (UniProt O94876) | inactive: 0.236
TLNRD1 (UniProt Q9H1K6) | inactive: 0.123

Compound: c1ccc([C@@H]2C[C@H]2NC2CCNCC2)cc1
Assay: as above
Method in brief: as §1

Target | log2 fold change
TLE3 isoform 5 (UniProt Q04726) | inactive: 0.199
TM2D3 (UniProt Q9BRN9) | inactive: -0.513
TKTL1 (UniProt P51854) | inactive: -0.164
TIFA (UniProt Q96CG3) | inactive: -0.06
TMED3 (UniProt Q9Y3Q3) | inactive: 0.024
THAP4 (UniProt Q8WY91) | inactive: -0.053
TMEM175 (UniProt Q9BSA9) | inactive: 0.257
TMEM147 (UniProt Q9BVK8) | inactive: -0.04
TMEM132A isoform 2 (UniProt Q24JP5) | inactive: -0.066
TJP1 (UniProt H0Y3R8) | inactive: 0.031
TKT, A0A0B4J1R6 | inactive: -0.362
TMEM129 | inactive: 0.189
TLK2 isoform 3 (UniProt Q86UE8) | inactive: 0.097
TMEM183B (UniProt Q1AE95) | inactive: 0.053
TMEM143 (UniProt Q96AN5) | inactive: -0.005
TMEM134 (UniProt Q9H6X4) | inactive: 0.044
TM7SF2 (UniProt O76062) | inactive: -0.029
TMEM159 isoform 2 (UniProt Q96B96) | inactive: 0.034
TMEM101 (UniProt Q96IK0) | inactive: 0
TMC7 (UniProt Q7Z402) | inactive: 0.011
THBS1 (UniProt P07996) | inactive: -0.007
TICAM1 (UniProt Q8IUC6) | inactive: 0.043
TMCC1 (UniProt O94876) | inactive: -0.038
TMEM131 (UniProt Q92545) | inactive: -0.144
